{"source": "PubChem BioAssay AID1259308 | NCATS, 2017", "screen": "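Knock-downs that increase output of a recombinant reporter protein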 (primary screen)", "cell system": "human HEK293 embryonic kidney cells stably expressing firefly luciferase (HEK-CMV-Luc2-Hygro)", "knock-down reagent": "single siRNA against human genes, 0.8 pmol siRNA per well", "time to read-out": "72 h", "read-out": "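Reporter luminescence and viable-cell signal on separate replicate plates, given as percent of non-targeting control and median/MAD z-scores, plus per-cell luciferase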", "direction": "total luciferase, z-score: higher = more reporter protein produced", "hit rule": "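An siRNA counts as active if its total luciferase robust z-score exceeds 3; genes with two or more such siRNAs out of three were retested with fresh siRNAs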", "meaning of the calls": "active = raised luciferase; inactive = no rise", "note": "The whole screen tested about 59,000 reagents; this is a part drawn at random. About 1,510 of them (2.6%) were called active. 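Calls use total luciferase alone and ignore viability, so some active siRNAs may act by altering cell number.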 Further read-outs or replicates are left out here. Reagent sequences are not shown."}
{"Gene":"INPP1 (GeneID 3628)","PubChem SID":"SID160775858","total luciferase, z-score":0.965,"Call":"inactive"}
{"Gene":"INPP1 (GeneID 3628)","PubChem SID":"SID160775859","total luciferase, z-score":-0.77,"Call":"inactive"}
{"Gene":"INPP1 (GeneID 3628)","PubChem SID":"SID160775860","total luciferase, z-score":0.182,"Call":"inactive"}
{"Gene":"TCF12-DT (GeneID 145783)","PubChem SID":"SID160758279","total luciferase, z-score":0.854,"Call":"inactive"}
{"Gene":"TCF12-DT (GeneID 145783)","PubChem SID":"SID160758280","total luciferase, z-score":-0.52,"Call":"inactive"}
{"Gene":"TCF12-DT (GeneID 145783)","PubChem SID":"SID160758281","total luciferase, z-score":-0.88,"Call":"inactive"}
{"Gene":"MAP3K7 (GeneID 6885)","PubChem SID":"SID160717684","total luciferase, z-score":0.65,"Call":"inactive"}
{"Gene":"MAP3K7 (GeneID 6885)","PubChem SID":"SID160717685","total luciferase, z-score":-0.366,"Call":"inactive"}
{"Gene":"MAP3K7 (GeneID 6885)","PubChem SID":"SID160717686","total luciferase, z-score":0.181,"Call":"inactive"}
{"Gene":"CPLX2 (GeneID 10814)","PubChem SID":"SID160724294","total luciferase, z-score":-0.478,"Call":"inactive"}
{"Gene":"CPLX2 (GeneID 10814)","PubChem SID":"SID160724295","total luciferase, z-score":-0.283,"Call":"inactive"}
{"Gene":"CPLX2 (GeneID 10814)","PubChem SID":"SID160729289","total luciferase, z-score":0.269,"Call":"inactive"}
{"Gene":"ARSI (GeneID 340075)","PubChem SID":"SID160764356","total luciferase, z-score":0.133,"Call":"inactive"}
{"Gene":"ARSI (GeneID 340075)","PubChem SID":"SID160764357","total luciferase, z-score":-0.245,"Call":"inactive"}
{"Gene":"ARSI (GeneID 340075)","PubChem SID":"SID160764358","total luciferase, z-score":-0.226,"Call":"inactive"}
{"Gene":"FIGNL2 (GeneID 401720)","PubChem SID":"SID160767367","total luciferase, z-score":-0.071,"Call":"inactive"}
{"Gene":"FIGNL2 (GeneID 401720)","PubChem SID":"SID160767368","total luciferase, z-score":-0.39,"Call":"inactive"}
{"Gene":"FIGNL2 (GeneID 401720)","PubChem SID":"SID160767369","total luciferase, z-score":0.255,"Call":"inactive"}

6 entries already listed, arranged by “total luciferase, z-score”, lowest first:
{"Gene":"TCF12-DT (GeneID 145783)","PubChem SID":"SID160758281","total luciferase, z-score":-0.88,"Call":"inactive"}
{"Gene":"TCF12-DT (GeneID 145783)","PubChem SID":"SID160758280","total luciferase, z-score":-0.52,"Call":"inactive"}
{"Gene":"MAP3K7 (GeneID 6885)","PubChem SID":"SID160717685","total luciferase, z-score":-0.366,"Call":"inactive"}
{"Gene":"MAP3K7 (GeneID 6885)","PubChem SID":"SID160717686","total luciferase, z-score":0.181,"Call":"inactive"}
{"Gene":"MAP3K7 (GeneID 6885)","PubChem SID":"SID160717684","total luciferase, z-score":0.65,"Call":"inactive"}
{"Gene":"TCF12-DT (GeneID 145783)","PubChem SID":"SID160758279","total luciferase, z-score":0.854,"Call":"inactive"}

Next records:
{"Gene":"M1AP (GeneID 130951)","PubChem SID":"SID160757023","total luciferase, z-score":0.332,"Call":"inactive"}
{"Gene":"M1AP (GeneID 130951)","PubChem SID":"SID160757024","total luciferase, z-score":0.835,"Call":"inactive"}
{"Gene":"M1AP (GeneID 130951)","PubChem SID":"SID160757025","total luciferase, z-score":-0.453,"Call":"inactive"}
{"Gene":"TRIM11 (GeneID 81559)","PubChem SID":"SID160750813","total luciferase, z-score":0.585,"Call":"inactive"}
{"Gene":"TRIM11 (GeneID 81559)","PubChem SID":"SID160750814","total luciferase, z-score":0.473,"Call":"inactive"}
{"Gene":"TRIM11 (GeneID 81559)","PubChem SID":"SID160750815","total luciferase, z-score":-1.21,"Call":"inactive"}
{"Gene":"HPSE2 (GeneID 60495)","PubChem SID":"SID160747112","total luciferase, z-score":0.328,"Call":"inactive"}
{"Gene":"HPSE2 (GeneID 60495)","PubChem SID":"SID160747113","total luciferase, z-score":-0.561,"Call":"inactive"}
{"Gene":"HPSE2 (GeneID 60495)","PubChem SID":"SID160747115","total luciferase, z-score":0.682,"Call":"inactive"}
{"Gene":"TMTC2 (GeneID 160335)","PubChem SID":"SID160759763","total luciferase, z-score":-1.41,"Call":"inactive"}
{"Gene":"TMTC2 (GeneID 160335)","PubChem SID":"SID160759764","total luciferase, z-score":-0.244,"Call":"inactive"}
{"Gene":"TMTC2 (GeneID 160335)","PubChem SID":"SID160759766","total luciferase, z-score":-0.429,"Call":"inactive"}
{"Gene":"CPEB3 (GeneID 22849)","PubChem SID":"SID160732033","total luciferase, z-score":-0.965,"Call":"inactive"}
{"Gene":"CPEB3 (GeneID 22849)","PubChem SID":"SID160732042","total luciferase, z-score":0.828,"Call":"inactive"}
{"Gene":"CPEB3 (GeneID 22849)","PubChem SID":"SID160732051","total luciferase, z-score":2.44,"Call":"inactive"}
